The results in this text go back to PMC8755797.

For one experiment, the target named is T1, HAM1-6×His (A. thaliana) (UniProt Q9FLF7).
T1 sequence: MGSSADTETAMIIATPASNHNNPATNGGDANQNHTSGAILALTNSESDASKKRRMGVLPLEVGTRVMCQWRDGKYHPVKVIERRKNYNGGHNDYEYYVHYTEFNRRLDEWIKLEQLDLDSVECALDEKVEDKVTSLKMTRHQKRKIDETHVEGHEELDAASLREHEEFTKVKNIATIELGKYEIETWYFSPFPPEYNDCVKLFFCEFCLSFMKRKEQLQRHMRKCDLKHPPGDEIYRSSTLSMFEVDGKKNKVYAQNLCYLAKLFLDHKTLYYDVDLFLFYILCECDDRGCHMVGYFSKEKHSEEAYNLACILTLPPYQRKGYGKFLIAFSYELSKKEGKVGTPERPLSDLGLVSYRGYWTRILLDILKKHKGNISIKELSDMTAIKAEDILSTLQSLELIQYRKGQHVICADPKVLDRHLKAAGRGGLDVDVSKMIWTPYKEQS
In words: pull-down; co-purification: HAM1-6×His, Flag-AtEPL1A, AtING2 and AtEAF6 co-expressed in E. coli from polycistronic pST44; purified on Talon cobalt resin via HAM1-6×His, eluted with 150 mM imidazole; Coomassie gel, western blot for HAM1-His and Flag-AtEPL1A. (In general: Immunoblotting shows a protein as a band on a membrane.)

The target in experiment [1] is T2, ING2-6×His (A. thaliana) (UniProt B3H615).
T2 sequence: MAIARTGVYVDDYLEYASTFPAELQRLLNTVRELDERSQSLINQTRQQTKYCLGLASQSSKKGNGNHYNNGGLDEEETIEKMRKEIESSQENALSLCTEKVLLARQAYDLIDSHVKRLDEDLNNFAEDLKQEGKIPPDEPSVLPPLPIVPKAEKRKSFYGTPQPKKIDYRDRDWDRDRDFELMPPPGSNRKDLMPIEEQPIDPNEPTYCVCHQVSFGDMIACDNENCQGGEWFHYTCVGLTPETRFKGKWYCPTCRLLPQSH
In words: pull-down; co-purification: Flag-HAM1, ING2-6×His and AtEAF6 co-expressed in E. coli from pST44 without the AtEPL1A sequence; cobalt resin via ING2-6×His; anti-Flag western blot.

In experiment [2] the target is T2, ING2-6×His (A. thaliana). In words: pull-down; co-purification: Flag-HAM1, ING2-6×His, AtEPL1A and AtEAF6 co-expressed in E. coli from pST44; cobalt resin via ING2-6×His, then anti-Flag M2 resin, elution with 3×FLAG peptides.

Results are given in words; binding and its absence hold for the method and conditions named. In cells and extracts the contact can be indirect. Some results given as binding are weak or reduced against the parent protein; the word gives no strength. Tags and fused reporters may be left off the sequences shown.

B1: AtING2 (protein, UniProt B3H615 1-262)
chain: T2 sequence
Regarding B1, the binding entry with HAM1-6×His (A. thaliana) is given as “binds”.

B2: Flag-HAM1 (enzyme, UniProt Q9FLF7 1-445)
chain: T1 sequence
Consider B2, for which the binding result in the experiment with ING2-6×His (A. thaliana) [1] and in the experiment with ING2-6×His (A. thaliana) [2] was “binds” each time.
